The assay addresses T1, VPAC2-R (mouse (endogenous in RGC-5)) (UniProt P41588).
T1 sequence: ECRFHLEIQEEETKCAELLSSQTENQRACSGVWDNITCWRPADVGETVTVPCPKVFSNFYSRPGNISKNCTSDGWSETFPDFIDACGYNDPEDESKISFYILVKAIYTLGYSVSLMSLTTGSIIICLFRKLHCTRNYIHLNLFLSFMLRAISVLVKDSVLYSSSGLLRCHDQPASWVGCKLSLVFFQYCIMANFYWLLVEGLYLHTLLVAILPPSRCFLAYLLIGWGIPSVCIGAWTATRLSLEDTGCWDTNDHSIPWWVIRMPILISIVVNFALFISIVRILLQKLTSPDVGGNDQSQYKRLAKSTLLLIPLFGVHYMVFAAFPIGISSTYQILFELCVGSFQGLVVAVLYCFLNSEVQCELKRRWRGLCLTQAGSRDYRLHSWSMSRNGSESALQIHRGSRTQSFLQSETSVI
Description: co-IP; nuclear fraction of RGC-5 cells treated with SPAM1 (1 uM); precipitated with the antibody against the C-terminus of PAC1-R (anti-PAC1-R/ADCYAP1R1 506-525 aa) or, as control, a VPAC2-R antibody, Protein A/G, overnight at 4 C; Western blot.

These are yes or no findings as the source states them, for the method shown. In cells and extracts the contact can be indirect.

As to “nuclear PAC1-R (pituitary adenylate cyclase-activating polypeptide receptor 1) (mouse (endogenous in RGC-5))”, the binding entry was “no binding”.

(Values after article PMC9784932.)
